# According to patent publication US20240075123A1, “TREATMENT OF CANCERS AND INFECTIOUS DISEASES WITH KILLED INTACT BACTERIA” (priority 2022, published 2024):
# Some of these results come from one statement about several compounds together.
# Test system: hepatitis B virus (HBV)
# Experiment: AAV-HBV mouse model of chronic HBV infection, first study
# Conditions: in vivo
# Protocol: The anti-hepatitis B virus (HBV) efficacy of Decoy was evaluated in two studies. A standard pre-clinical model was used in which the human HBV genome is inserted in an adeno-associated virus (AAV). This hybrid construct is able to infect mouse hepatocytes, producing a chronic HBV-like infection with many of the hallmarks of human HBV infection, including high levels of HBV replication in liver and blood and production of HBe and HBs antigen (HBeAg and HBsAg). AAV-HBV virus is administered to mice and then blood titers of HBV DNA are monitored. Significant and relatively stable blood levels of HBV appear within 28-31 days, at which point treatment is initiated. Indomethacin was administered with Decoy in many groups in the first study, but not in the second study.
# In the first study, Decoy (two different doses) was tested in combination with indomethacin and also in combination with the clinical standard of care, Entecavir (ETV). ETV and indomethacin were also tested as single agents (first study). […] In addition, ETV and mIFN-alpha were tested as single agents and in combination with Decoy (one dose).
# Decoy-induced body weight loss was mild, transient (6% for […] in first week of treatment) and tapered off after the first week of treatment (tolerance phenomenon) (FIG. 28).
compound,measurement,value
"C=C1[C@H](CO)[C@@H](O)C[C@@H]1n1cnc2c(=O)[nH]c(N)nc21 [ETV, Entecavir]",duration of inhibition of HBV replication after the end of dosing,up to 28 weeks
